# Values of other authors in patent US20090186839A1, “Model for studying the role of genes in chemoresistance” (Cold Spring Harbor Laboratory, priority 2003, published 2009).
# At least one structure is not confirmed: it was looked up by name or label, or the drawing left a doubt.
# How the values were obtained:
# [1] = system: Eukaryotic protein synthesis; details: Table 1; cited from earlier work
# [2] = system: Eukaryotic protein synthesis; details: Table 1; cited from earlier work; remark: listed apart in the source
smiles,measurement,setting,value
Cn1c[n+]([C@@H]2O[C@H](COP(=O)(O)OP(=O)([O-])O)[C@@H](O)[C@H]2O)c2nc(N)[nH]c(=O)c21 [M^7GDP],In Vivo Inhibition,[1],−
same,In Vitro Inhibition,[2],+
